Among the data in the supplement of paper PMC12819154, “High-throughput peptide-centric local stability assay extends protein–ligand identification to membrane proteins, tissues and bacteria” (Nature Structural & Molecular Biology, 2025) are log2 fold change values, retold here.

Chains of the proteins cited; added tags and fusions are not shown. Lines headed by an entry give the natural chain unless they say otherwise; changes in a name come on top.
UniProt O15226: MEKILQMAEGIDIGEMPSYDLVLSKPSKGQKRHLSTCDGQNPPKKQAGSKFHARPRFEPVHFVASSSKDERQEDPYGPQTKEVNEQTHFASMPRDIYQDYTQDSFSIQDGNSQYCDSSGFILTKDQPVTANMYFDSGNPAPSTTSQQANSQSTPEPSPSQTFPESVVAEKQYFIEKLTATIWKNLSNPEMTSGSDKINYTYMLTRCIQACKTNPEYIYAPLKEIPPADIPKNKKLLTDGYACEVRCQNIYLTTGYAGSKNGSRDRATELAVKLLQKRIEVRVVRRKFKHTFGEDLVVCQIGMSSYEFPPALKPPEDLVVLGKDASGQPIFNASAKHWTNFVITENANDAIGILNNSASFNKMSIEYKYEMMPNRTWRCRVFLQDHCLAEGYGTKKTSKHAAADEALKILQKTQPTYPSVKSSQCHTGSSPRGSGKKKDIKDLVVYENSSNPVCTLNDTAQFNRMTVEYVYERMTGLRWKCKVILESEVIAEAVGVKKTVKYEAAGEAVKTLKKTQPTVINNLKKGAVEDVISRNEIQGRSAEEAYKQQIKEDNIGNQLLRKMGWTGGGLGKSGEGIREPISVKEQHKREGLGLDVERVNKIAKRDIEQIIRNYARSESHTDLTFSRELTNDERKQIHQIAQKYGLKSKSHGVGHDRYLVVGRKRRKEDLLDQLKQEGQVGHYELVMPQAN
UniProt O14924: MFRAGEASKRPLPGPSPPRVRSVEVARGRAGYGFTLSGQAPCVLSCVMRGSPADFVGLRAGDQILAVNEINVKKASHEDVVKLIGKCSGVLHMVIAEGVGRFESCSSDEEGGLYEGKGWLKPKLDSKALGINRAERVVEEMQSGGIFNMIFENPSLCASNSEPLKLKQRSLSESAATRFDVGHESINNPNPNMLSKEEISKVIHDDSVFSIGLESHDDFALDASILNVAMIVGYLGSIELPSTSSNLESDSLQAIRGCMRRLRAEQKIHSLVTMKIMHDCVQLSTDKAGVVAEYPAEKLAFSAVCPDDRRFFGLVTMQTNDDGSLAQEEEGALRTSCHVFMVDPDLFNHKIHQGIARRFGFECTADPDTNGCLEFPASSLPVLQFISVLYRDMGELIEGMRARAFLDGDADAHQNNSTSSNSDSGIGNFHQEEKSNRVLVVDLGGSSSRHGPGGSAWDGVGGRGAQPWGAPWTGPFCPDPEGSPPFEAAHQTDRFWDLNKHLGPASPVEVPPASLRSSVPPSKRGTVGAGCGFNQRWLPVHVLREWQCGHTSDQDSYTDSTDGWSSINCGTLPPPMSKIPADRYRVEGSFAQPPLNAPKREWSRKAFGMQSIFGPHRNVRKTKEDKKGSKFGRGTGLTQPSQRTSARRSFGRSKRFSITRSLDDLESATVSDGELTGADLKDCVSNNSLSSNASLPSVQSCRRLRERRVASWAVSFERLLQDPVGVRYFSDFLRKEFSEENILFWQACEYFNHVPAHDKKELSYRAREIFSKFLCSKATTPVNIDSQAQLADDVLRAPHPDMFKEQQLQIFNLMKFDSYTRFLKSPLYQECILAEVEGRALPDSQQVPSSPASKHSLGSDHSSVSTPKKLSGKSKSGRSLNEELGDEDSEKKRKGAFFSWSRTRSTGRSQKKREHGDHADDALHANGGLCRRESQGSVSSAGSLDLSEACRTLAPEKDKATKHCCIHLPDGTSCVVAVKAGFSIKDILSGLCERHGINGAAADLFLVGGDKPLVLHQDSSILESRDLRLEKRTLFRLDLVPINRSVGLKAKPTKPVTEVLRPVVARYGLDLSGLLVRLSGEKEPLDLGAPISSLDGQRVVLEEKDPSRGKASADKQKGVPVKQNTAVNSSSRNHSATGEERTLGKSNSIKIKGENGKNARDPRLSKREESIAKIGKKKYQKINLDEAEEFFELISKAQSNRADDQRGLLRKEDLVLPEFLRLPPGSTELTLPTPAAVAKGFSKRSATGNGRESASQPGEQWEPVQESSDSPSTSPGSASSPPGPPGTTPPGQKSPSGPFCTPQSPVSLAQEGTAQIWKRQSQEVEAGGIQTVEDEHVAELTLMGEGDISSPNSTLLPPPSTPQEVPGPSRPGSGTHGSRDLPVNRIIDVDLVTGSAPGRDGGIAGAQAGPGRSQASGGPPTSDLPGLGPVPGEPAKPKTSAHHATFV
UniProt O00559: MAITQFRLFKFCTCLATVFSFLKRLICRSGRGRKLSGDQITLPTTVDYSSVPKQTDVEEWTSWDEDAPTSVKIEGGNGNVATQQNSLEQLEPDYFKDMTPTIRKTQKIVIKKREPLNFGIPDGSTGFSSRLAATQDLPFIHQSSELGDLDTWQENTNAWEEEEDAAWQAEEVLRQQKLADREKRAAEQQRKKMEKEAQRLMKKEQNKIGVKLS
UniProt O00716: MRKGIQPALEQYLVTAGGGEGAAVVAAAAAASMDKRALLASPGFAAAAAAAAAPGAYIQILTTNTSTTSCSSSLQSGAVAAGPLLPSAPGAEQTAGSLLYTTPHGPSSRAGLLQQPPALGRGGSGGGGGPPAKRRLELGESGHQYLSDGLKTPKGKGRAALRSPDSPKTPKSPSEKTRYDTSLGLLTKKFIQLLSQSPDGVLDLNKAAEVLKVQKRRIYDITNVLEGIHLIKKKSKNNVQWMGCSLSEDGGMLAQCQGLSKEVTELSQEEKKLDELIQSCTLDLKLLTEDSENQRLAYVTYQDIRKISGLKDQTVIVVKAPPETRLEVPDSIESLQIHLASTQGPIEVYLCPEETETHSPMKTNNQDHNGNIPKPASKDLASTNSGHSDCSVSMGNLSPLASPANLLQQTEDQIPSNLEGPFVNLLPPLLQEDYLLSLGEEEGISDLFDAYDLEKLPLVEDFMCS
UniProt O14672: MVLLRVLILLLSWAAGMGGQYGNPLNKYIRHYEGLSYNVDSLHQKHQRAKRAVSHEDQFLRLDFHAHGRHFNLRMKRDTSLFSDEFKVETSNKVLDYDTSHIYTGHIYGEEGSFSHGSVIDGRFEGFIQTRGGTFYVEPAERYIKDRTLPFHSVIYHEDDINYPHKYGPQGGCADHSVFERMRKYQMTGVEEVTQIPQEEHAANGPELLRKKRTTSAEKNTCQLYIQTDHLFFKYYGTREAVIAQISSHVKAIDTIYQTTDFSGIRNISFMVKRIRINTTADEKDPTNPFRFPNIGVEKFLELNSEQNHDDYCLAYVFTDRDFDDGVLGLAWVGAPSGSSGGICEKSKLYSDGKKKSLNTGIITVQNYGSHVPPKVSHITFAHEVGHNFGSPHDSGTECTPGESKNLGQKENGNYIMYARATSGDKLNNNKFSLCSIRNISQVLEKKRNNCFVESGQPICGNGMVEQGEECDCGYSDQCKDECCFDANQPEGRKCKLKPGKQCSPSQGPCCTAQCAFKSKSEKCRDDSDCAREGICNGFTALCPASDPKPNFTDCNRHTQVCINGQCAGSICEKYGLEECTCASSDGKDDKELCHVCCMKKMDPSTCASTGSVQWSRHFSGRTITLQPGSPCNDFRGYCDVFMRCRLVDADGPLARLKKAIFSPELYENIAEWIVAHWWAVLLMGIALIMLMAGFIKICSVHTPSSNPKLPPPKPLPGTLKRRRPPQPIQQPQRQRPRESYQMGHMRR
UniProt O15294: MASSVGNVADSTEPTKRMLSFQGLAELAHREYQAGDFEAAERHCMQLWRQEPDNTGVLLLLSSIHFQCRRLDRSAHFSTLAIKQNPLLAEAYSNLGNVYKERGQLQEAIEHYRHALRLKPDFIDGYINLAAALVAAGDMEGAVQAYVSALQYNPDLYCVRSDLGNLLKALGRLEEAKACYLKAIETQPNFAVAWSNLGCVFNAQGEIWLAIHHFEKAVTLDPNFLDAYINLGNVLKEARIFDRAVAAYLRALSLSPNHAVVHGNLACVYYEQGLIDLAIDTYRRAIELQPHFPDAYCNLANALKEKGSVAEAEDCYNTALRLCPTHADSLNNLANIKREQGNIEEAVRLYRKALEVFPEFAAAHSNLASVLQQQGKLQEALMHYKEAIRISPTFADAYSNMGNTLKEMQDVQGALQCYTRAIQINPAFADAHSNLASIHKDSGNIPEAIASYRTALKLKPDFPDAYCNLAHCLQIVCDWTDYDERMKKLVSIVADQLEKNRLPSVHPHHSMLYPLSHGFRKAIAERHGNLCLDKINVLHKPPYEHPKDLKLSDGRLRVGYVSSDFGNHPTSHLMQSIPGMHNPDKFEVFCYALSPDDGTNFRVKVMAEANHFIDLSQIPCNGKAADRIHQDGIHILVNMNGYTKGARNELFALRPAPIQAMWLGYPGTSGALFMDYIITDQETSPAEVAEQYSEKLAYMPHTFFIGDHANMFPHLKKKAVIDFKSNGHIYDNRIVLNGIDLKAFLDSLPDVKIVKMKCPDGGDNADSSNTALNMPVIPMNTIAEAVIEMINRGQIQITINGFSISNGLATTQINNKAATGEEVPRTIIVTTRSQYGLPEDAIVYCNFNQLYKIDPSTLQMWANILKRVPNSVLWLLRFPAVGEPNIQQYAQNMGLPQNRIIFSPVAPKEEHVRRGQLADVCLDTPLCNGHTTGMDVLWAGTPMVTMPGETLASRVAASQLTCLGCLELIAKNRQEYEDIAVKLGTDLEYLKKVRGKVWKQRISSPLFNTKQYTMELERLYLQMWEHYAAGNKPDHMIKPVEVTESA
UniProt O00231, whole entry: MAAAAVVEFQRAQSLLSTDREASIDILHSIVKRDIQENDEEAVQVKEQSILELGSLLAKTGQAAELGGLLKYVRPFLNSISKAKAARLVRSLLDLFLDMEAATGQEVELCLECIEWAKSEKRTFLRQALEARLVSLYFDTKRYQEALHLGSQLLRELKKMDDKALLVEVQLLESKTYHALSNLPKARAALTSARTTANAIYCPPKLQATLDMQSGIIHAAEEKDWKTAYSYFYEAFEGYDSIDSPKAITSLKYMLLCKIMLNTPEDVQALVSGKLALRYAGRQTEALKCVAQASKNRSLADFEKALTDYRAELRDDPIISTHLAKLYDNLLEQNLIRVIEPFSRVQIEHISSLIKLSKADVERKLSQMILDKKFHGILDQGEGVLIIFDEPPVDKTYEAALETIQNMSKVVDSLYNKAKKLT
UniProt O15182: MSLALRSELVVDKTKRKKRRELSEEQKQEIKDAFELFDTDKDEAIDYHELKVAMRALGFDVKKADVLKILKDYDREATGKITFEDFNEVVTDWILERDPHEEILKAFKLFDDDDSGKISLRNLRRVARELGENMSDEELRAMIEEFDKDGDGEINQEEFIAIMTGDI

Some of the results follow. Most entries show no effect beyond the scatter of the controls.

Compound in this experiment: CN[C@@H]1C[C@H]2O[C@@](C)([C@@H]1OC)n1c3ccccc3c3c4c(c5c6ccccc6n2c5c31)C(=O)NC4 [staurosporine]
The experiment in a line: log2 fold change of tryptic peptide abundance, ligand vs vehicle (limited proteolysis) (log2 ratio); higher = more trypsin-susceptible (destabilized). The settings on record: ligand concentration: 20 uM; sample: K562 cleared lysate; digestion: 4 min, 22 C (HT-PELSA RT4min, Orbitrap Astral).
For the target “NKRF (peptide sequence: CRVFLQDHCLAEGYGTK, peptide start residue: 378) (UniProt O15226)”, the log2 fold change is -0.674.
To “UniProt O14924 (peptide sequence: VLVVDLGGSSSR, peptide start residue: 438)” belongs -0.192.
Regarding “EBAG9 (peptide sequence: KREPLNFGIPDGSTGFSSR, peptide start residue: 112) (UniProt O00559)”, the log2 fold change is -0.199.
Next, “E2F3 (peptide sequence: RLELGESGHQYLSDGLK, peptide start residue: 135) (UniProt O00716)”: 0.48.
To “ADAM10 (peptide sequence: ESYQMGHMR, peptide start residue: 739) (UniProt O14672)” belongs 0.853.
For “OGT (peptide sequence: AFLDSLPDVK, peptide start residue: 743) (UniProt O15294)”, the log2 fold change was found to be 0.167.
Next, “PSMD11 (peptide sequence: IMLNTPEDVQALVSGK, peptide start residue: 259) (UniProt O00231)”: 0.181.
Next, “CETN3 (peptide sequence: DAFELFDTDKDEAIDYHELK, peptide start residue: 32) (UniProt O15182)”: -0.329.
